The list shows a part of the results.

In this assay the target is T1, OsSMF1 (Oryza sativa, UniProt Q6ZLB0 1-436).
T1 sequence: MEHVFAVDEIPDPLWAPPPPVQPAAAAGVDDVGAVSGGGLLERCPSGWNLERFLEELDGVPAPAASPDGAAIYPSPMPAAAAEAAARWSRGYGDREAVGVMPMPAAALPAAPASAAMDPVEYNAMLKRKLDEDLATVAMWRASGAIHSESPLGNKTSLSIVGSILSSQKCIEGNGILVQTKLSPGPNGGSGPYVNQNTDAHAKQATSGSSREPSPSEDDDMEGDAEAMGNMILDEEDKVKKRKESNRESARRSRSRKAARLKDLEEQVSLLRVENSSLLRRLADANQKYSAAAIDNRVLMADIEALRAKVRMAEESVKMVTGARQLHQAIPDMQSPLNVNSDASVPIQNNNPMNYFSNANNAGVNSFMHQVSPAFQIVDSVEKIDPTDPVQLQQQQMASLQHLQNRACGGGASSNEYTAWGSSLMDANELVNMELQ
The assay can be described thus: protein-binding microarray (RPBM); PBS, 2% BSA, 51.3 ng/ul salmon testes DNA, 50 uM zinc acetate, 200 nM TF, 25 C, 1 h; high values mean tight binding. The following applies: protein: recombinant; tags: N-terminal polyhistidine and DsRed monomer fusion (pET32a); chain copies: 2; label: CyDye5-dUTP incorporated in the synthesized complementary strand; 3' TTTTT single-stranded linker to array surface; dsDNA, one strand shown. The gist of the method: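 Binding signal is defined as the fluorescence intensity of each feature in arbitrary units, read on an Axon 4000B scanner. Transcription factors with N-terminal polyhistidine and DsRed fusions came from E. coli BL21-CodonPlus and were purified on Ni–NTA. They were incubated at 200 nM for 1 h at 25 °C on a custom Agilent array that had been made double-stranded with Cy5-dUTP, with 50 µM zinc acetate present, and the array was washed.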
Take “ACTGGAGCTAACCGCTGACGTGGCATTCCACGTAGGCAACCGGAGTCACCTAGTGCAG”: the binding signal was 42500 fluorescence intensity (a.u.).

Consider “TTCGTGCTCCTCCCGTGCCTCTCCCTGGTTGCCCGTGTGGCGGAGTCACCTAGTGCAG”, for which the binding signal is 4000 fluorescence intensity (a.u.).

Regarding “TGGCCCACATGTCAGTGGGACGTGGCCCAGCTCACCTCGTCGGAGTCACCTAGTGCAG”, the binding signal is 7640 fluorescence intensity (a.u.).

On to “CGTCTTTACGTGTTCTCAACTAAGCTTCTTTACGTGTTTTCGGAGTCACCTAGTGCAG”, for which the binding signal was 3900 fluorescence intensity (a.u.). For “GATTGTGTCATAGTTCTATAGTTGGAATTTGGTTTATCGTCGGAGTCACCTAGTGCAG”, the binding signal is 30800 fluorescence intensity (a.u.). The same measure for “AAAATCATACGAACGGAAAAGCAAAAGATAGAAGCCAAAACGGAGTCACCTAGTGCAG”: 16500 fluorescence intensity (a.u.). “CACGGTCATGGACGACGTACGTACGTGTCTCCTCCATAAACGGAGTCACCTAGTGCAG”: the binding signal is 4460 fluorescence intensity (a.u.). Take “ATCTCCTTGATTGCCACATCAACAGAACCGCGAACCATATCGGAGTCACCTAGTGCAG”: the binding signal was 4430 fluorescence intensity (a.u.). For “GATCCGGGACTCATCCCACGTGCCGCCTCGCCACCGCCGCCGGAGTCACCTAGTGCAG”, the binding signal is 3750 fluorescence intensity (a.u.). “GAGACCGGTTATGACGCGACGGAGAAGACGTGGGCACGCGCGGAGTCACCTAGTGCAG”: the binding signal was 3820 fluorescence intensity (a.u.). For “AGTTGGTGGTGGCTTGGATGGATCCAACGTGGCATTTCCACGGAGTCACCTAGTGCAG”, the binding signal was 14800 fluorescence intensity (a.u.). With “CCTTAGCCTGGCTTAATTACCACATCAGCTCATTAATGGCCGGAGTCACCTAGTGCAG”, the binding signal is 4360 fluorescence intensity (a.u.).

On to “TCCAAGCTGACACCGCGACCCCACCGGCGTCGCGGTGGCTCGGAGTCACCTAGTGCAG”, for which the binding signal is 3320 fluorescence intensity (a.u.). As for “CGTCTCCCTGCGCCGCCTCCCCTCCCTTCTCTCCCCATTCCGGAGTCACCTAGTGCAG”, the binding signal is 3360 fluorescence intensity (a.u.). Consider “AGACCCACGTCAGCGCCATTCAAGTCCATTCCTCCGTCACCGGAGTCACCTAGTGCAG”, for which the binding signal is 19700 fluorescence intensity (a.u.). “GGGTAGGGTTGTGAGTTTGTGACGTCGTCCCCTGCAAAACCGGAGTCACCTAGTGCAG”: the binding signal was 3480 fluorescence intensity (a.u.). Consider “GCCGCCACCCACCCACAACCACCGCCGCCTCCGCTCCAGACGGAGTCACCTAGTGCAG”, for which the binding signal is 3510 fluorescence intensity (a.u.).

As to “CACGCATGTGGTGACTTCGTCAATTTCTCTAGGATTTGCCCGGAGTCACCTAGTGCAG”, the binding signal was 3750 fluorescence intensity (a.u.). Turning to “TAGCTGATTTAACAACCGCCCGTTTCTTATTTTCGGGAATCGGAGTCACCTAGTGCAG”, the binding signal was 32100 fluorescence intensity (a.u.).

In the case of “ACTCACCTGCTGATAACCAGACGCTAAATTGGCAATTGTACGGAGTCACCTAGTGCAG”, the binding signal was 38100 fluorescence intensity (a.u.). For the sequence “TGTGCCACGTGGGAGCAAACACACCTGGCATAGGCCCAAGCGGAGTCACCTAGTGCAG”, the binding signal is 4200 fluorescence intensity (a.u.). In the case of “GCACGCCGTTCCATTCCAAGTCAACGTGACAAACCAACCGCGGAGTCACCTAGTGCAG”, the binding signal is 3380 fluorescence intensity (a.u.). The same measure for “GTTGCAGCGTCACGCTTTGCGTACTTGTGCTTGTGGGCATCGGAGTCACCTAGTGCAG”: 5800 fluorescence intensity (a.u.); for “GGTCAAGAGCGCATCCAGCATGTCGTCGTGTACCTGACCGCGGAGTCACCTAGTGCAG”: 3720 fluorescence intensity (a.u.).

Turning to “CTTCAATGAATACAAAAGAAGTGTTTTGACTACAAGTACTCGGAGTCACCTAGTGCAG”, the binding signal is 25600 fluorescence intensity (a.u.). On to “CGGCTTGTGCACTACATGCACACGCTGCCAACTCATGTACCGGAGTCACCTAGTGCAG”, for which the binding signal was 4390 fluorescence intensity (a.u.). For the sequence “GGCGCGTGGGTTGCCCGCGACCGCGACGTGGCGTTCGTGGCGGAGTCACCTAGTGCAG”, the binding signal is 6210 fluorescence intensity (a.u.). On to “CGCGCCGCGCCGCTGCACAAGAATCCAACCGGTGGTGGTGCGGAGTCACCTAGTGCAG”, for which the binding signal is 3240 fluorescence intensity (a.u.). The figure for “CCCACGACCACCGGCCAGGCGTGGCCCCACATGTCATCCTCGGAGTCACCTAGTGCAG” is 4510 fluorescence intensity (a.u.); for “TACCCAAGTCGACGCAACCGGATGCTGACTACCACCCAAGCGGAGTCACCTAGTGCAG” it is 5040 fluorescence intensity (a.u.); for “CGTTGCCATGTTGGCATGCCACGTGGGCAAAAGTGGCAAACGGAGTCACCTAGTGCAG” it is 13500 fluorescence intensity (a.u.).

Take “GCGGGCGTCGTAGCCGGTGCCTGCGCTGGCGCTCCCTCCCCGGAGTCACCTAGTGCAG”: the binding signal was 4040 fluorescence intensity (a.u.). The same measure for “GCTTCTGCTGTGGCTGTGCTGAGCTTTCACAGTCACAGCCCGGAGTCACCTAGTGCAG”: 3550 fluorescence intensity (a.u.); for “ATGGTGATTGGGAGGGTGAATCAGAGTGACTAAAAGAAATCGGAGTCACCTAGTGCAG”: 5230 fluorescence intensity (a.u.); for “TTGCAACTAGTAGAAGATGAATTTGGTTTTATATGTTTGTCGGAGTCACCTAGTGCAG”: 26200 fluorescence intensity (a.u.). For “GCCCGCCACTTGCTGACACGACATGACCCGCGCACCAAATCGGAGTCACCTAGTGCAG”, the binding signal was 35400 fluorescence intensity (a.u.). As to “TGCGGTTTCCCTTCTTGACCTTTCGAGTAATCAAATAACGCGGAGTCACCTAGTGCAG”, the binding signal was 14600 fluorescence intensity (a.u.). “CTCCCATAGCTGTCCTTATATGGTGATCCTGATTCCACATCGGAGTCACCTAGTGCAG”: the binding signal was 26500 fluorescence intensity (a.u.). Turning to “CATCCGCGTCTCTCGTCACGCCCACACCACCACCCACCAACGGAGTCACCTAGTGCAG”, the binding signal is 4850 fluorescence intensity (a.u.).

As for “AAATCGCATGTATACATGTACAAATAGCGTTGCTTTGTCACGGAGTCACCTAGTGCAG”, the binding signal is 4760 fluorescence intensity (a.u.). The same measure for “CGCTGTGTATATATGTGCAGGTCCATCCATGAGAGGTTGACGGAGTCACCTAGTGCAG”: 34900 fluorescence intensity (a.u.); for “TTACGCTTAATAAATTCGTCTCACGGTTTCCATGCAAGTTCGGAGTCACCTAGTGCAG”: 15500 fluorescence intensity (a.u.); for “GGGAGTGTACATCTCAGTTGACGTGGACTGCCTCGATCCCCGGAGTCACCTAGTGCAG”: 18700 fluorescence intensity (a.u.).

Consider “CTCACAGTCGTCATCGTCGCTACCGCCGCCGCCGCCGCTGCGGAGTCACCTAGTGCAG”, for which the binding signal is 4830 fluorescence intensity (a.u.). For the sequence “GCCTCCTCTCCTCTCTCTCGCCTGTGACCTGTCCCTACCTCGGAGTCACCTAGTGCAG”, the binding signal is 3860 fluorescence intensity (a.u.).

For the sequence “CATGTTCGTGCGCCGTCACTACAGGCACCTCGCTGTCAACCGGAGTCACCTAGTGCAG”, the binding signal is 40100 fluorescence intensity (a.u.). With “CGCCGGTGTATATATCGGATCTTTCCAACTCAGCGCCACACGGAGTCACCTAGTGCAG”, the binding signal was 6840 fluorescence intensity (a.u.). Consider “GTTTTGGCTGACGTGGCGCCTACGTGGTTTGTTTGACCTACGGAGTCACCTAGTGCAG”, for which the binding signal was 37300 fluorescence intensity (a.u.). For “ATATGATGTCACAATAAAATGCCAGTCCGAGTGATTTTCTCGGAGTCACCTAGTGCAG”, the binding signal was 4730 fluorescence intensity (a.u.). For the sequence “CCCCACGCCACAGCCTCTTATCCCACACGCGGACCAACAGCGGAGTCACCTAGTGCAG”, the binding signal was 3200 fluorescence intensity (a.u.). For the sequence “AGGCTCCCCTGAGTCGTGACGTGCACTCGAAAGTCGAAAGCGGAGTCACCTAGTGCAG”, the binding signal was 41100 fluorescence intensity (a.u.).

Regarding “GGGCCCACCTGTCATTGGGTAGACGCAAGTACTGCCATGTCGGAGTCACCTAGTGCAG”, the binding signal is 3140 fluorescence intensity (a.u.). Consider “CGGTCGAAAATTGACGGAGGATCACTGTCAGTCACCGGCGCGGAGTCACCTAGTGCAG”, for which the binding signal is 3160 fluorescence intensity (a.u.). As to “ACGTTATAGTTTAGAACATGACGTAACATAGATGTGTAGGCGGAGTCACCTAGTGCAG”, the binding signal was 4740 fluorescence intensity (a.u.).
